Assay [1] has as its target T1, 重组蛋白人CK-MB (human) (UniProt P06732+P12277). In words: ELISA specificity screen of hybridoma clones; antigens at 1 ug/mL. (An ELISA detects its analyte on a solid surface through an enzyme-linked reagent.)
Assay [2] addresses T1, 重组蛋白人CK-MB (human). The assay can be described thus: lateral-flow sandwich kit made of antibodies B and C, run on clinical samples (native CK-MB).

Amino acid sequences for entries named in this document (tags omitted). A change or cut given only in a name is not applied to a line headed by its entry.
UniProt P06732: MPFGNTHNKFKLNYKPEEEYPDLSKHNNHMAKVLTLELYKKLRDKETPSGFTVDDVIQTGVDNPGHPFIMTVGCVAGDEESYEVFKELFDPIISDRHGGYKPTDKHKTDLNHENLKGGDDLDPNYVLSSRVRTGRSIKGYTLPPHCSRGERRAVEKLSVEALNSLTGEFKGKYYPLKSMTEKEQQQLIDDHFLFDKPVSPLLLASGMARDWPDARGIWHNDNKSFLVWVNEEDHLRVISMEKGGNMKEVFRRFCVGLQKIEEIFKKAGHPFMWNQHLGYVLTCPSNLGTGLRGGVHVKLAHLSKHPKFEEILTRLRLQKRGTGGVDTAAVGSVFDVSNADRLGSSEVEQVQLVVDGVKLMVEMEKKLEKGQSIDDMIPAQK
UniProt P12277: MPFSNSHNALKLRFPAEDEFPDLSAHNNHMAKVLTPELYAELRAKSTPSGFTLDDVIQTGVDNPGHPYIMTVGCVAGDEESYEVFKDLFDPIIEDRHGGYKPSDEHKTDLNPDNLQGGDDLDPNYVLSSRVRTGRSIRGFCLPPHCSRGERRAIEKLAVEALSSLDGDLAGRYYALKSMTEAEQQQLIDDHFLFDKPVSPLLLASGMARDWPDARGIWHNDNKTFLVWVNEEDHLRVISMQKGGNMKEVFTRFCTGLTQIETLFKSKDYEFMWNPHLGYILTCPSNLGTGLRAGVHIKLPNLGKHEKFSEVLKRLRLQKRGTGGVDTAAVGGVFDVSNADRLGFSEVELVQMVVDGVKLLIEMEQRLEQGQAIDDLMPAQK

Results on 2 molecules are retold here after patent CN114181313A.

Results are given in words; binding and its absence hold for the method and conditions named. Some entries that bind do so weakly or less than the wild type.

B1: 抗体B (antibody, IgG2, V domains shown)
VH: QVQLQQSGAELVKPGASVKISCKASGYAFSDYWMNWVKQRPGQGLEWIGQIYPGDGDTNYNGKFKGKATLAADKSSSTVYMQLSSLTSEDSAVYFCARVYPYFTYWGQGTLVTVSA
VL: DIVMTQSHKFMSTSVGDRVSITCKASQDVSTAVAWYQQKPGQSPKLLIYSASYRYTGVPDRFTGSGSGTDFTFTISSVQAEDLAVYYCQQHYSSPVTFGAGTKLELK
With B1, the binding result with 重组蛋白人CK-MB (human) [1] and in the assay with 重组蛋白人CK-MB (human) [2] was “binds” in each case.

B2: 抗体A (antibody, IgG2, V domains shown)
VH: DVQLQESGPGLVKPSQTVSLTCTVTGISITTGSDRWSWIRQFPGNKLEWIGYIYYSGTITYNPSLTSRTTITRDTSKNQFFLEMNSLTAEDTATYYCARERTYYGYGYFDVWGTGTTVTVSS
VL: DIQMTQSPSSLSASLGDKVTITCHASQNINVWLSWYQQKPGKAPKLLIYKASDLHTGVSSRFSGSGSGTAFTLTISSLQPEDIATYYCQQGQSYPWTFGGGTKLEIK
Consider B2, for which, in the assay with 重组蛋白人CK-MB (human) [1], the binding result is “binds”.
